From the supplement of paper PMC12889115
The list shows a part of the results. These are raw signals, not scaled to a control.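 Primary screen: polymyxin B was added at a level permeabilizing Salmonella outer membranes while sparing inner membranes. DMSO wells, both with and without polymyxin B, established maximum growth. Plate-to-plate variation meant each plate was ranked on its own, and the lowest-OD600 compounds were selected as hits.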

Test system: Salmonella enterica serovar Typhimurium SL1344
Assay: bacterial growth OD600 after 18 h with compound and polymyxin B; higher = more bacterial growth (less inhibition)
Settings: 50 µM, Mueller-Hinton broth

Compound | bacterial growth OD600 (polymyxin B 1 µg/mL) | bacterial growth OD600 (polymyxin B 0.75 µg/mL)
CN(C(=O)c1coc(COc2ccc(F)cc2)n1)C(C1CC1)C1CC1 | 0.003 | 
Cc1cc(C(=O)N2CCCC(C(=O)Nc3ccccc3Oc3cccnc3)C2)nn1C (centres undefined) | 0.944 | 
CC(C)=CC(=O)N1CCC(n2nccc2NC(=O)c2ccccc2C)CC1 | 0.876 | 
Cc1ccc(CNCc2c(C(=O)N(C)CCc3ccccc3)nc3sccn23)o1 | 1.04 | 
O=C(CCC1CCN(C(=O)c2cccc(N3CCCC3=O)c2)CC1)NC1CC1 | 0.915 | 
C/C=C(\C)CN1CCC(CCC(=O)Nc2ccc3c(c2)OCCO3)CC1 | 0.856 | 
C=CCC1(CC=C)CCCN1C(=O)CC1C(=O)NCCN1Cc1cccnc1 (centres undefined) | 0.862 | 
CCCC1(C2CCN(C(=O)C3=CC(=O)CC(C)(C)O3)CC2)NC(=O)N(CCc2ccccn2)C1=O (centres undefined) |  | 0.797
Cc1cccc(CN2CCC(N3CCCC(C(=O)NC4CC4)C3)CC2)c1 (centres undefined) |  | 0.79

Part of the list above, comma-delimited:
Compound,bacterial growth OD600 (polymyxin B 1 µg/mL),bacterial growth OD600 (polymyxin B 0.75 µg/mL)
Cc1ccc(CNCc2c(C(=O)N(C)CCc3ccccc3)nc3sccn23)o1,1.04,
C=CCC1(CC=C)CCCN1C(=O)CC1C(=O)NCCN1Cc1cccnc1 (centres undefined),0.862,
